In PubChem BioAssay AID2685 (National Center for Advancing Translational Sciences (NCATS), 2010) one finds cell number change and AC50 data, which are given here for 40 compounds.

This experiment can be described thus: qHTS Assay for Lipid Storage Modulators in Drosophila S3 Cells.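 As to cell number change: cells counted by Cell Tracker Red CMTPX staining in the red channel.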 Conditions: BODIPY lipid droplet fluorescence, 18-24 h; for cell number change: measured here: cell count max response, cells fed with added oleic acid. In short, it runs like this:
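Drosophila S3 cells got compounds at several concentrations plus oleic acid (400 uM solution). Laser-scanning cytometry with 488 nm excitation read lipid droplets at 500-530 nm and cells at 575-640 nm. Percent activity was relative to 20 uM Triacsin C.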

The mark [1] stands for this setting: measured here: cell number channel AC50, cells fed with added oleic acid.
Where [2] appears, read: measured here: lipid fluorescence (Fed channel) AC50, cells fed with added oleic acid.

Some of the results follow. These are further read-outs of the screen, such as a control signal, another cell line or another target. No call is given for them. Compounds called inactive in the main read-out are mostly missing here. Potencies come from curve fits of mixed quality, noted in brackets.

With `Cc1ccc(/C=N/NC(=O)CN(Cc2ccccc2)S(=O)(=O)c2ccc3c(c2)OCCO3)cc1`, the cell number change was 32.6%. Under setting [1], the AC50 is 0.461 µM [rising, partial curve, poor fit]. Moreover, the AC50 under setting [2] was 0.731 µM [rising, single point].

As to `CC1=NCCN1S(=O)(=O)c1cc([N+](=O)[O-])ccc1Cl`, the cell number change was -6.05%. The half-maximal activity concentration (AC50) under setting [2] was 0.461 µM [falling, full curve, poor fit].

On to `CC(C)c1ccc(/C=C(\NC(=O)c2ccccc2)C(=O)NCCN2CCOCC2)cc1`, for which the cell number change came out at 6.16%. The AC50 under setting [2] was 0.231 µM [rising, full curve].

Regarding `COc1cc(SC)ccc1C(=O)N1CCN(Cc2ccc3c(c2)OCO3)CC1`, the cell number change is -0.647%. For the same compound, under setting [2], the concentration at half-maximal activity (AC50) is 29.1 µM [rising, single point].

On to `O=C(Nn1c(SCc2ccccc2F)nc2ccsc2c1=O)c1ccccc1`, for which the cell number change was -45.9%. Besides, the half-maximal activity concentration (AC50) under setting [1] was 29.1 µM [falling, single point].

With `CC1=NNC(=O)/C1=C\c1cn(-c2ccccc2)nc1-c1ccc(Cl)cc1`, the cell number change was -73.1%. The AC50 under setting [1] was 25.9 µM [falling, partial curve]. Moreover, the AC50 under setting [2] is 10.3 µM [falling, partial curve].

For the compound `CC(C)(C)NC(=O)c1cc(F)c(F)cc1Cl`, the cell number change was -0.509%. For the same compound, under setting [2], the half-maximal activity concentration (AC50) was 29.1 µM [falling, single point].

Turning to `O=C(Nc1cc(Br)ccc1O)c1cc(-c2cccs2)on1`, the cell number change was 26.9%. The AC50 under setting [2] is 0.00517 µM [rising, full curve, poor fit].

In the case of `Cc1cccc(NC(=O)c2cc3ccccc3nc2C)c1`, the cell number change was determined as 51.1%. The concentration at half-maximal activity (AC50) under setting [1] was 14.6 µM [rising, partial curve].

Consider `N=c1ccn(Cc2ccccc2Cl)cc1`, for which the cell number change is -51.5%. Also, under setting [1], the half-maximal activity concentration (AC50) was 32.6 µM [falling, single point].

For `N#C/C(=C\c1ccco1)Sc1nc2ccccc2s1`, the cell number change was -3.59%.

With `O=C1COc2ccc(C(=O)COC(=O)Cc3ccccc3F)cc2N1`, the cell number change was determined as 7.92%. Besides, the concentration at half-maximal activity (AC50) under setting [1] is 0.259 µM [falling, full curve, poor fit]. Besides, under setting [2], the concentration at half-maximal activity (AC50) was 0.146 µM [falling, full curve, poor fit].

With `CN(Cc1nc2ccccc2c(=O)[nH]1)Cc1nc2ccsc2c(=O)[nH]1`, the cell number change is 16.9%. In addition, the AC50 under setting [2] was 4.11 µM [rising, single point].

Turning to `Cc1cc(NC(=O)CSc2n[nH]c(N)n2)no1`, the cell number change stood at 7.79%.

In the case of `CCc1ccccc1Nc1cc(C(=O)NCc2ccccn2)c2ccccc2n1`, the cell number change was -5.24%. Besides, the concentration at half-maximal activity (AC50) under setting [1] was 0.00461 µM [rising, full curve, poor fit].

Turning to `Cc1ccc(CN2CN(S(=O)(=O)c3cccs3)c3nc4ccccc4nc32)cc1`, the cell number change is -17.6%. Further, the half-maximal activity concentration (AC50) under setting [2] was 0.184 µM [falling, full curve].

Take `CCN1CCN(CC(=O)Nc2c(OC)cccc2OC)CC1`: the cell number change is -14.6%. The concentration at half-maximal activity (AC50) under setting [2] is 29.1 µM [falling, single point].

On to `O=C(O)c1ccccc1C(=O)N1N=C2/C(=C/c3cccc([N+](=O)[O-])c3)CCCC2C1c1cccc([N+](=O)[O-])c1` (stereo not given), for which the cell number change came out at 28.7%. Moreover, the half-maximal activity concentration (AC50) under setting [2] was 32.6 µM [rising, single point].

For the compound `CC(C)Oc1cccc(C(=O)C2CCCN(C(=O)c3noc4c3CCCC4)C2)c1` (stereo not given), the cell number change is -46%. Moreover, the half-maximal activity concentration (AC50) under setting [1] is 25.9 µM [falling, partial curve]. Further, the concentration at half-maximal activity (AC50) under setting [2] is 25.9 µM [falling, partial curve].

Take `CCOc1ccc(N(CC(=O)NCC(C)C)S(C)(=O)=O)cc1`: the cell number change was -14.3%.

For the compound `CCOc1cc(/C=N/NC(=O)C(=O)NCc2ccc3c(c2)OCO3)ccc1OCC(=O)N1CCOCC1`, the cell number change was -1.22%. Also, the concentration at half-maximal activity (AC50) under setting [2] is 7.31 µM [rising, partial curve, poor fit].

For `O=C(OCC(=O)c1cccs1)c1cccc(C(=O)OCC(=O)c2cccs2)n1`, the cell number change is 41.7%. The AC50 under setting [1] was 29.1 µM [rising, single point].

For `Cc1ccc(NC(=O)CN(C)CC(=O)Nc2ccc(N3CCOCC3)cc2)cc1F`, the cell number change stood at 3.08%. The AC50 under setting [2] was 0.517 µM [falling, partial curve, poor fit].

As to `CCOC(=O)N1CCN(C(=O)CSc2ncnc3sccc23)CC1`, under setting [1], the concentration at half-maximal activity (AC50) is 6.51 µM [rising, single point].

As for `Cc1cc(N2CCOCC2)n2nc(C)c(-c3ccccc3)c2n1`, the cell number change was -7.97%.

On to `C[C@]12CCC[C@H](O1)[C@H]([C@@H](O)c1ccccc1)O2`, for which the cell number change turned out to be 6.88%. Moreover, the AC50 under setting [1] was 4.11 µM [falling, single point]. For the same compound, the half-maximal activity concentration (AC50) under setting [2] was 4.11 µM [falling, single point].

For the compound `CCc1ccc([C@@H]2CC=C(C(=O)O)CN2S(=O)(=O)c2ccc(C)cc2)cc1`, the cell number change is -30.8%. The concentration at half-maximal activity (AC50) under setting [1] was 14.6 µM [falling, single point].

As to `Cc1[nH]n(C(N)=S)c(=O)c1N=Nc1cc(C(F)(F)F)ccc1Cl`, the cell number change is -0.185%.

As for `CCCCCCC1CC(CSC(=N)N)OC1=O` (stereo not given), the cell number change was 11.2%.

On to `Cc1ccccc1NC(=O)c1cc(C(=O)c2cc(Cl)ccc2O)cn(-c2ccccc2C)c1=O`, for which the cell number change is -233%. Further, the AC50 under setting [1] was 29.1 µM [falling, partial curve]. Besides, under setting [2], the concentration at half-maximal activity (AC50) is 3.26 µM [rising, single point].

Regarding `O=C(Nc1nnc(-c2ccccc2)o1)C1CCCN1S(=O)(=O)c1cccs1` (stereo not given), the cell number change worked out at 0.803%.

For the compound `CC(C)c1c(O)nc(SCCOc2ccc(Cl)cc2)[nH]c1=O`, the cell number change was found to be 9.97%. Also, the half-maximal activity concentration (AC50) under setting [2] was 6.51 µM [rising, partial curve].

Take `CCOC(=O)Cc1[nH]nc2c1C(c1cc(OC)ccc1OC)C(C#N)=C(N)O2` (stereo not given): the cell number change was -8.84%.

As for `Fc1ccccc1COc1ccc(C(=S)N2CCCC2)cc1`, the cell number change is -10.1%. For the same compound, the concentration at half-maximal activity (AC50) under setting [2] is 18.4 µM [falling, single point].

With `CCN(CC(=O)Nc1cccc(OC)c1)CC(=O)Nc1ccc(C)cc1Cl`, the cell number change turned out to be 16.9%. Further, under setting [2], the AC50 is 0.184 µM [rising, full curve, poor fit].

As for `O=C(NS(=O)(=O)Nc1ccc(Br)cn1)c1c[nH]c2ccccc12`, the cell number change was found to be 16.1%.

For the compound `CC(=O)c1cc2c(cc1NC(=O)CSc1nnc(C)s1)OCO2`, the cell number change is -21.4%. Moreover, the half-maximal activity concentration (AC50) under setting [2] was 0.116 µM [rising, full curve, poor fit].

As to `CCOC(=O)CCCNC(=O)c1cncc(O)c1`, the cell number change is -10.2%.

Consider `CC1CCC(NC(=O)CNC(=O)Cc2cccc3ccccc23)CC1` (stereo not given), for which the cell number change was 17.6%. For the same compound, under setting [2], the AC50 is 6.51 µM [falling, single point].

For `Cc1ccc(C)c(NC(=O)CSc2nc3nc(-c4cccs4)cc(C(F)(F)F)c3c(=O)[nH]2)c1`, the cell number change stood at 4.25%. Moreover, the AC50 under setting [2] was 2.06 µM [rising, partial curve, poor fit].
